Data as given in PubChem BioAssay AID1259425 (University of Nebraska Medical Center, 2018)
Purpose: 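Compare each knockdown with KSR1 silencing using changes in marker transcripts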 (primary screen). Cell system: HCT116 human colon cancer cells. Reagents: siRNA pool against human genes, 50 nM siRNA. Measurement: 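mRNA of six signature genes measured together by branched-DNA assay after 50 nM siRNA pool, blank removed, divided by geometric mean of two housekeeping genes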. Direction: BNIP3L mRNA: higher = more BNIP3L transcript after knockdown.
The deposit covers about 14,000 reagents; shown is a random part of them. A reagent listed more than once was tested more than once; the source does not tell the runs apart. Not all columns of the deposit are shown. Not stated in the record: the time to read-out.

The opening 3 records, ahead of the listing:
MLLT11 (MLLT11 transcription factor 7 cofactor): BNIP3L mRNA, set 1 = 0.0668
TMEM177 (transmembrane protein 177): BNIP3L mRNA, set 1 = 0.163
DOK5 (docking protein 5): BNIP3L mRNA, set 1 = 0.0604

The list itself, from the start:
MLLT11 (MLLT11 transcription factor 7 cofactor): BNIP3L mRNA, set 1 = 0.0668
TMEM177 (transmembrane protein 177): BNIP3L mRNA, set 1 = 0.163
DOK5 (docking protein 5): BNIP3L mRNA, set 1 = 0.0604
HHIPL1 (HHIP like 1): BNIP3L mRNA, set 1 = 0.248
SEMA3B (semaphorin 3B): BNIP3L mRNA, set 1 = 0.261
EIF2D (eukaryotic translation initiation factor 2D): BNIP3L mRNA, set 1 = 0.137
MRTFA (myocardin related transcription factor A): BNIP3L mRNA, set 1 = 0.0805
ITGA5 (integrin subunit alpha 5): BNIP3L mRNA, set 1 = 0.0742
ATP10D (ATPase phospholipid transporting 10D (putative)): BNIP3L mRNA, set 1 = 0.133
H6PD (hexose-6-phosphate dehydrogenase/glucose 1-dehydrogenase): BNIP3L mRNA, set 1 = 0.0701
HS3ST3B1 (heparan sulfate-glucosamine 3-sulfotransferase 3B1): BNIP3L mRNA, set 1 = 0.0798
HMGB2 (high mobility group box 2): BNIP3L mRNA, set 1 = 0.0487
GCA (grancalcin): BNIP3L mRNA, set 1 = 0.202
PLIN2 (perilipin 2): BNIP3L mRNA, set 1 = 0.143
TRPM1: BNIP3L mRNA, set 1 = 0.093
GUK1 (guanylate kinase 1): BNIP3L mRNA, set 1 = 0.135
FDXR (ferredoxin reductase): BNIP3L mRNA, set 1 = 0.0474
ACTL7A (actin like 7A): BNIP3L mRNA, set 1 = 0.0507
TSSC4 (tumor suppressing subtransferable candidate 4): BNIP3L mRNA, set 1 = 0.105
GLRX2 (glutaredoxin 2): BNIP3L mRNA, set 1 = 0.0794
DEPP1 (DEPP autophagy regulator 1): BNIP3L mRNA, set 1 = 0.111
CLIC3 (CLIC family member 3): BNIP3L mRNA, set 1 = 0.0759
NRGN (neurogranin): BNIP3L mRNA, set 1 = 0.116
STARD8 (StAR related lipid transfer domain containing 8): BNIP3L mRNA, set 1 = 0.137
UGT2B28 (UDP glucuronosyltransferase family 2 member B28): BNIP3L mRNA, set 1 = 0.0611
KCNV1: BNIP3L mRNA, set 1 = 0.154
RP9 (RP9 pre-mRNA splicing factor): BNIP3L mRNA, set 1 = 0.0804
SPG7 (SPG7 matrix AAA peptidase subunit, paraplegin): BNIP3L mRNA, set 1 = 0.0785
SPG7 (SPG7 matrix AAA peptidase subunit, paraplegin): BNIP3L mRNA, set 1 = 0.0776
SPG7 (SPG7 matrix AAA peptidase subunit, paraplegin): BNIP3L mRNA, set 1 = 0.0733
